Laboratory results reported in patent US20090105149A1, “Compounds comprising lpa” (ENKAM PHARMACEUTICALS A/S, priority 2003, published 2009).
These are yes or no findings as the source states them, for the method shown. Some entries that bind do so weakly or less than the wild type.

Sequences of proteins named here, by UniProt entry; tags and fusion partners are left off. A change or cut given only in a name is not applied to a line headed by its entry. A line that says so, or that is headed by a name, gives the form on record, which may keep a tag or linker.
rat FGFR1 (IIIC isoform) fused to the N-terminal of hexahistidine, expressed in transfected HEK293 cells (Q04589, form named): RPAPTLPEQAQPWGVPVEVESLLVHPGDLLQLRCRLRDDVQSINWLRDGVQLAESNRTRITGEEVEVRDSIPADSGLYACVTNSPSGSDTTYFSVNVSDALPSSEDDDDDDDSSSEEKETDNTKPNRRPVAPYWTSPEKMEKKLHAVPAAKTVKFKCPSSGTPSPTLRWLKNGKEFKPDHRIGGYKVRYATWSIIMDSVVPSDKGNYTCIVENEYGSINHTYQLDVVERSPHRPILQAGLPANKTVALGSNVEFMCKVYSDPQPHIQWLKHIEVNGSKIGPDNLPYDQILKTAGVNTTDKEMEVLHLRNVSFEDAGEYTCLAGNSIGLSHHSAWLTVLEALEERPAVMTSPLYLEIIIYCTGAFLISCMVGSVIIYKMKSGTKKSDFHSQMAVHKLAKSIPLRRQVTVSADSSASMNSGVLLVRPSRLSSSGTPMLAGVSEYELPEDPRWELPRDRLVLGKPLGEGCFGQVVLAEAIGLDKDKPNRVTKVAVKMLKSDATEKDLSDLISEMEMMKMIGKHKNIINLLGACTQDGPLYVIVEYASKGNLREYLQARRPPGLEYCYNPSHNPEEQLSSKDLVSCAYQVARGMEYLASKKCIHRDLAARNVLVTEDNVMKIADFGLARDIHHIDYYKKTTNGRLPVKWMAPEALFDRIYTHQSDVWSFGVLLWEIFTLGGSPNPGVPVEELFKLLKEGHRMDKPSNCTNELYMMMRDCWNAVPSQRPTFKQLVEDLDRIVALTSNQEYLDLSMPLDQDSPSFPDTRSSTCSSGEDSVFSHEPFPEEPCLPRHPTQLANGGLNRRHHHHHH

Target: rat FGFR1 (IIIC isoform) fused to the N-terminal of hexahistidine, expressed in transfected HEK293 cells (rat) (UniProt Q04589)
Test: HEK293 cells transfected with rat FGFR1 (IIIC)-His6, stimulated with EFL monomer; the only readout described is receptor phosphorylation

binding: binds
Binder: NIEVWVEAENALGKKV [EFL peptide (peptide of SEQ ID NO: 2), individual monomer]
